# Measured values published in patent US20040142357A1.
# Protein sequences, listed by entry. Tags and fused reporters are not part of them. Lines headed by an entry give the natural chain unless they say otherwise; changes in a name come on top.
# UniProt P15531: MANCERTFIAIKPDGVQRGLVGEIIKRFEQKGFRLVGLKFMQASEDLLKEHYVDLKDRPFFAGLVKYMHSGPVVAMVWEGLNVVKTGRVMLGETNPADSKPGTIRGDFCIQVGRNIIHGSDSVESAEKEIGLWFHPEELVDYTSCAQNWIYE
# UniProt P54274: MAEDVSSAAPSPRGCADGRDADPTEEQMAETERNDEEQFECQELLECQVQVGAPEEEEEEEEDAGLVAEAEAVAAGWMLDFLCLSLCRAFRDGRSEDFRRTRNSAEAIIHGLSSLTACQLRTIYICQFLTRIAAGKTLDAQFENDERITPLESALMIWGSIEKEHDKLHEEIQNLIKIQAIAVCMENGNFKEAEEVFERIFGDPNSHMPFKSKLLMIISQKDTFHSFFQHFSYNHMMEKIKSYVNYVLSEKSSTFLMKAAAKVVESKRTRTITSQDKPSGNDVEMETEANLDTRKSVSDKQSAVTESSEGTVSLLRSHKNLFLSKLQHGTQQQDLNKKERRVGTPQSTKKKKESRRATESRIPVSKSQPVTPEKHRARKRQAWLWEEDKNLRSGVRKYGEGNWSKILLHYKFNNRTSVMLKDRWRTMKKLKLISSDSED
# These are yes or no findings as the source states them, for the method shown. For some of these results: In cells and extracts the contact can be indirect. Some results given as binding are weak or reduced against the parent protein; the word gives no strength. For some of these results: Sequences can lack the tags named with a protein.
# How the values were obtained:
# [1] = target: Pin2 isoform of Pin2/TRF1 fused to the GAL4 DNA-binding domain (pAS2 vector, yeast two-hybrid bait) (human); experiment: yeast two-hybrid screen, Pin2 bait against a HeLa cDNA library, His and LacZ screening
# [2] = target: T1, HA-PinX1 (PinX1 with an N-terminal HA epitope tag) (human) (UniProt Q96BK5); experiment: GST pulldown from cell extracts, immunoblot with 12CA5
# T1 sequence: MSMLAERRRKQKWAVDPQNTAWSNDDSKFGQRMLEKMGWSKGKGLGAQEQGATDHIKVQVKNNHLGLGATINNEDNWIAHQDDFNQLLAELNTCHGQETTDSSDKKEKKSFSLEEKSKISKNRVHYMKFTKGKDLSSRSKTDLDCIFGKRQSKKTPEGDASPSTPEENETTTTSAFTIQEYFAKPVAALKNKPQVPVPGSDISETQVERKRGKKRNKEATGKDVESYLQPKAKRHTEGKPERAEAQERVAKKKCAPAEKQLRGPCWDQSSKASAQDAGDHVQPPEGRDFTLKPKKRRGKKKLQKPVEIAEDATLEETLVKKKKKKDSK
# [3] = target: T1, HA-PinX1 (PinX1 with an N-terminal HA epitope tag) (human); experiment: GST pulldown from HeLa lysates, immunoblot with anti-HA
# [4] = target: T2, GFP fusion of the PinX1 254-328 amino acid fragment (human) (UniProt Q96BK5); experiment: GST pulldown from HeLa lysates, immunoblot with anti-GFP
# T2 sequence: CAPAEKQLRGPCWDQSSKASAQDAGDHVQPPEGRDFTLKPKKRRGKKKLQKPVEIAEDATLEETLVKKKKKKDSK
# [5] = target: T3, GFP fusion of the PinX1 C-terminal 142-328 amino acid fragment (human) (UniProt Q96BK5); experiment: as above
# T3 sequence: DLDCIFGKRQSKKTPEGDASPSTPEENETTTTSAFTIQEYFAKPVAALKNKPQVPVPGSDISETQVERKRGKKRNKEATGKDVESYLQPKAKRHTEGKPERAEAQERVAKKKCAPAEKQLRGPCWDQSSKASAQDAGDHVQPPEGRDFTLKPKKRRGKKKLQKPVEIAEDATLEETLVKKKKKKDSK
# [6] = target: T4, GFP-PinX1 (full length PinX1 as a GFP fusion protein) (human) (UniProt Q96BK5); experiment: as above
# T4 sequence: T1 sequence
Substance,binding [1],binding [2],binding [3],binding [4],binding [5],binding [6]
nm23-H1 clone from the HeLa cDNA library fused to the GAL4 activation domain (yeast two-hybrid prey) (from UniProt P15531 1-152),binds,,,,,
"Pin2 isoform clone from the HeLa cDNA library fused to the GAL4 activation domain (pGAD-GH, yeast two-hybrid prey) (from UniProt P54274 2-439)",binds,,,,,
GST-Pin2 (from UniProt P54274 2-439),,binds,binds,binds,binds,binds
